Laboratory results as given in US20020119178A1 (priority 2001, published 2002).

Test system: human saphenous vein smooth muscle cells (HSV-SMC)
Assay: HSV-SMC proliferation assay (MTS), drugs at known concentrations
Format: cell-based
Conditions: 72 h, read-out: IC50 (concentration at which the proliferation is reduced by 50%)
Method: A proliferation assay was performed using human saphenous vein smooth muscle cells (HSV-SMC) with cells at passage 3-5. HSV-SMC were established in 96-well plates for 24 hours then serum starved for 48 hours. […] A positive control (100%) was set for cells exposed to DMEM supplemented with 20% FBS only while a negative control (0%) was set for cells exposed to only unsupplemented DMEM. Cells were stimulated for 72 hours with the anti-proliferative drug containing culture media. A solution of [3-(4,5-dimethylthiazol-2-yl)-5-(3-carboxymethoxyphenyl)-2-(4-sulfophenyl)-2H-tetrazolium](MTS, a cell proliferation marker) is then added onto the cells for 3 hours. Absorbance at 490 nm is recorded using a 96-well plate reader.

With `COc1cc2c(c(OC)c1OC)-c1ccc(OC)c(=O)cc1[C@@H](NC(C)=O)CC2` [colchicine] the IC50 was 1 nM.
